In paper PMC6572798 one finds binding data, which are given here for two substances.

By UniProt entry, the sequences of proteins in these tests, tags left out. Where a name states a change or a piece, a line headed by the entry shows the natural chain unless it says otherwise.
UniProt A6IA08: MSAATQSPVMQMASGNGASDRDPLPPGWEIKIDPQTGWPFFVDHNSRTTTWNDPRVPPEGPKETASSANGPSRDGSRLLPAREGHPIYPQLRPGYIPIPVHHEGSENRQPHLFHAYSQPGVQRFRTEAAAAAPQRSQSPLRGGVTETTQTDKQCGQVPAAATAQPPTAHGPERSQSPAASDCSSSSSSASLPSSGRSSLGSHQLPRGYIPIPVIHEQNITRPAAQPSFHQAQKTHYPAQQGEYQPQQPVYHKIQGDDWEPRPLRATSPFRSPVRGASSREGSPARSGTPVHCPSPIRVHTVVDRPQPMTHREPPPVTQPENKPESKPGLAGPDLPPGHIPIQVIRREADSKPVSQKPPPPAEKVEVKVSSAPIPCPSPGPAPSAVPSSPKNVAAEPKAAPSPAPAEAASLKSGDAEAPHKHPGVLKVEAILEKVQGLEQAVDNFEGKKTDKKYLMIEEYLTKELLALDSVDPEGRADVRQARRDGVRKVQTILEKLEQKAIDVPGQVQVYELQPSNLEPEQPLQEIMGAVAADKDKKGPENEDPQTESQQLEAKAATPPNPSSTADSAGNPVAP
UniProt P21707: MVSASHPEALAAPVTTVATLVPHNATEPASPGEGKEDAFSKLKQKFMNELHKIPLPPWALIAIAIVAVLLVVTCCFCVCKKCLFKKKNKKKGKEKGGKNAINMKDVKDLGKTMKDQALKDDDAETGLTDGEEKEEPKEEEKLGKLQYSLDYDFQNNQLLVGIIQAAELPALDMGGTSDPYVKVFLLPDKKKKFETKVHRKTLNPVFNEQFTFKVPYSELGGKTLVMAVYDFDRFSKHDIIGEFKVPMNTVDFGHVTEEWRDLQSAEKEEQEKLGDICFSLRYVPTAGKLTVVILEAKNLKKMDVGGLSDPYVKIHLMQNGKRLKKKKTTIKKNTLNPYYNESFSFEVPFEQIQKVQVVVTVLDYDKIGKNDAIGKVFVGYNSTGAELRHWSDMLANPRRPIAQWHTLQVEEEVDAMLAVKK

Assay [1] has as its target T1, ATG5 (rat (endogenous in primary neurons)) (UniProt Q3MQ06).
T1 sequence: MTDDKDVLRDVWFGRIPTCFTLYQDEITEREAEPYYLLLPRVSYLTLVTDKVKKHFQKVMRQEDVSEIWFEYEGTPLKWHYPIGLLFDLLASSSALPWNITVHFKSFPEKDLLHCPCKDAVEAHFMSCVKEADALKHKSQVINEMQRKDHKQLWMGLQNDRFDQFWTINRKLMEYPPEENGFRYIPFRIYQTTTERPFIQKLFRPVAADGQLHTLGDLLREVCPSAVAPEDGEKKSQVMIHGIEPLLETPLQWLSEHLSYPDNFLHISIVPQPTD
The assay can be described thus: co-IP; endogenous proteins; precipitated with an antibody to one partner and blotted for the other (Fig. 4b BAG3 and LC3; Fig. 4d ATG5 antibody, probed for BAG3; Fig. 5b BAG3 antibody, probed for synaptotagmin 1); lysate and buffer not told.

The target of assay [2] is BAG3 (rat (endogenous in primary hippocampal and cortical neurons)) (UniProt A6IA08). Described as above.

Results are given in words; binding and its absence hold for the method and conditions named. Binding seen in cells or lysates may run through a third protein. A result given as binding can be weak or reduced; the word gives no strength.

On to BAG3 (from UniProt A6IA08), for which, in assay [1], the binding result is given as “binds”.
As to “synaptotagmin 1 (from UniProt P21707 1-421)”, in assay [2], the binding entry is on record as “binds”.
